Experimental data as given in the supplement of paper PMC10849652.
This is one part of the list.

By UniProt entry, the sequences of proteins in these tests, tags left out. Where a name states a change or a piece, a line headed by the entry shows the natural chain unless it says otherwise.
UniProt Q9NWB6: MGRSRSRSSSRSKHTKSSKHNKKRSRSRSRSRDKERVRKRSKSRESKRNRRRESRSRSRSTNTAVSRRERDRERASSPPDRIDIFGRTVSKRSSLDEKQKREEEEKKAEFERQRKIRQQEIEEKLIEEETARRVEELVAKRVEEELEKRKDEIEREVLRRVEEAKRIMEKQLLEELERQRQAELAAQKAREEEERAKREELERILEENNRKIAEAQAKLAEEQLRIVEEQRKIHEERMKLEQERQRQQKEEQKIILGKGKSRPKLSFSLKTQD
UniProt Q9HC16: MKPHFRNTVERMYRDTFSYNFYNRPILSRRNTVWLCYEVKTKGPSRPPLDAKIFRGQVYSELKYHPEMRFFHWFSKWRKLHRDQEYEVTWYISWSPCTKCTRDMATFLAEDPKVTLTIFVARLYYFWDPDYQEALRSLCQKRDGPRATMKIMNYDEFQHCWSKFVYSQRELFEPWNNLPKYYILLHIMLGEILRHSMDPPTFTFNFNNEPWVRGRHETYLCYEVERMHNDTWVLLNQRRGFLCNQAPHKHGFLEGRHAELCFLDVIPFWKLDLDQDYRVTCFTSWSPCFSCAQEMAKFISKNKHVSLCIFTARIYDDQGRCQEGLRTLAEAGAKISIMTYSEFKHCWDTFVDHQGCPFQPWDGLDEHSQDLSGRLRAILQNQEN
UniProt Q6NXT1: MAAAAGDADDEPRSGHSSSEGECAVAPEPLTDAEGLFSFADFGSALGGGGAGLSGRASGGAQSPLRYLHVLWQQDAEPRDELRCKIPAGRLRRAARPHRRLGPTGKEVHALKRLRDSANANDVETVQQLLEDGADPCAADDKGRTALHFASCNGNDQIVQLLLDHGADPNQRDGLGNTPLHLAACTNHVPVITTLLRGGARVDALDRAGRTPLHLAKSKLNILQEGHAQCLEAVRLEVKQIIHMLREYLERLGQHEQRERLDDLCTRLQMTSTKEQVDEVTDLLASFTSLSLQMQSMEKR
UniProt P02654: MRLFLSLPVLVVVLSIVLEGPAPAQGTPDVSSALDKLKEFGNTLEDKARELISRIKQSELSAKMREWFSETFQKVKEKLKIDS
UniProt Q8N6T3: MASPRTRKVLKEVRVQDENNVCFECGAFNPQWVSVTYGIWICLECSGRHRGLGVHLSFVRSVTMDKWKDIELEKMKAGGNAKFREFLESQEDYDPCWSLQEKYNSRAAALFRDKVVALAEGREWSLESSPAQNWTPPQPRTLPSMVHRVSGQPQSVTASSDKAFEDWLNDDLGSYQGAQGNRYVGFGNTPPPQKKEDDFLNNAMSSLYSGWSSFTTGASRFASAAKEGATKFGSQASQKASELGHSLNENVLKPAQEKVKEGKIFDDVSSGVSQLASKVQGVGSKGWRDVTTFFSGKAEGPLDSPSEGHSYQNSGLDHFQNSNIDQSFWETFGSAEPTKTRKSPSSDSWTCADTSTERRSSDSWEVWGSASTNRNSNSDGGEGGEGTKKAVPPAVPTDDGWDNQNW
UniProt Q01484: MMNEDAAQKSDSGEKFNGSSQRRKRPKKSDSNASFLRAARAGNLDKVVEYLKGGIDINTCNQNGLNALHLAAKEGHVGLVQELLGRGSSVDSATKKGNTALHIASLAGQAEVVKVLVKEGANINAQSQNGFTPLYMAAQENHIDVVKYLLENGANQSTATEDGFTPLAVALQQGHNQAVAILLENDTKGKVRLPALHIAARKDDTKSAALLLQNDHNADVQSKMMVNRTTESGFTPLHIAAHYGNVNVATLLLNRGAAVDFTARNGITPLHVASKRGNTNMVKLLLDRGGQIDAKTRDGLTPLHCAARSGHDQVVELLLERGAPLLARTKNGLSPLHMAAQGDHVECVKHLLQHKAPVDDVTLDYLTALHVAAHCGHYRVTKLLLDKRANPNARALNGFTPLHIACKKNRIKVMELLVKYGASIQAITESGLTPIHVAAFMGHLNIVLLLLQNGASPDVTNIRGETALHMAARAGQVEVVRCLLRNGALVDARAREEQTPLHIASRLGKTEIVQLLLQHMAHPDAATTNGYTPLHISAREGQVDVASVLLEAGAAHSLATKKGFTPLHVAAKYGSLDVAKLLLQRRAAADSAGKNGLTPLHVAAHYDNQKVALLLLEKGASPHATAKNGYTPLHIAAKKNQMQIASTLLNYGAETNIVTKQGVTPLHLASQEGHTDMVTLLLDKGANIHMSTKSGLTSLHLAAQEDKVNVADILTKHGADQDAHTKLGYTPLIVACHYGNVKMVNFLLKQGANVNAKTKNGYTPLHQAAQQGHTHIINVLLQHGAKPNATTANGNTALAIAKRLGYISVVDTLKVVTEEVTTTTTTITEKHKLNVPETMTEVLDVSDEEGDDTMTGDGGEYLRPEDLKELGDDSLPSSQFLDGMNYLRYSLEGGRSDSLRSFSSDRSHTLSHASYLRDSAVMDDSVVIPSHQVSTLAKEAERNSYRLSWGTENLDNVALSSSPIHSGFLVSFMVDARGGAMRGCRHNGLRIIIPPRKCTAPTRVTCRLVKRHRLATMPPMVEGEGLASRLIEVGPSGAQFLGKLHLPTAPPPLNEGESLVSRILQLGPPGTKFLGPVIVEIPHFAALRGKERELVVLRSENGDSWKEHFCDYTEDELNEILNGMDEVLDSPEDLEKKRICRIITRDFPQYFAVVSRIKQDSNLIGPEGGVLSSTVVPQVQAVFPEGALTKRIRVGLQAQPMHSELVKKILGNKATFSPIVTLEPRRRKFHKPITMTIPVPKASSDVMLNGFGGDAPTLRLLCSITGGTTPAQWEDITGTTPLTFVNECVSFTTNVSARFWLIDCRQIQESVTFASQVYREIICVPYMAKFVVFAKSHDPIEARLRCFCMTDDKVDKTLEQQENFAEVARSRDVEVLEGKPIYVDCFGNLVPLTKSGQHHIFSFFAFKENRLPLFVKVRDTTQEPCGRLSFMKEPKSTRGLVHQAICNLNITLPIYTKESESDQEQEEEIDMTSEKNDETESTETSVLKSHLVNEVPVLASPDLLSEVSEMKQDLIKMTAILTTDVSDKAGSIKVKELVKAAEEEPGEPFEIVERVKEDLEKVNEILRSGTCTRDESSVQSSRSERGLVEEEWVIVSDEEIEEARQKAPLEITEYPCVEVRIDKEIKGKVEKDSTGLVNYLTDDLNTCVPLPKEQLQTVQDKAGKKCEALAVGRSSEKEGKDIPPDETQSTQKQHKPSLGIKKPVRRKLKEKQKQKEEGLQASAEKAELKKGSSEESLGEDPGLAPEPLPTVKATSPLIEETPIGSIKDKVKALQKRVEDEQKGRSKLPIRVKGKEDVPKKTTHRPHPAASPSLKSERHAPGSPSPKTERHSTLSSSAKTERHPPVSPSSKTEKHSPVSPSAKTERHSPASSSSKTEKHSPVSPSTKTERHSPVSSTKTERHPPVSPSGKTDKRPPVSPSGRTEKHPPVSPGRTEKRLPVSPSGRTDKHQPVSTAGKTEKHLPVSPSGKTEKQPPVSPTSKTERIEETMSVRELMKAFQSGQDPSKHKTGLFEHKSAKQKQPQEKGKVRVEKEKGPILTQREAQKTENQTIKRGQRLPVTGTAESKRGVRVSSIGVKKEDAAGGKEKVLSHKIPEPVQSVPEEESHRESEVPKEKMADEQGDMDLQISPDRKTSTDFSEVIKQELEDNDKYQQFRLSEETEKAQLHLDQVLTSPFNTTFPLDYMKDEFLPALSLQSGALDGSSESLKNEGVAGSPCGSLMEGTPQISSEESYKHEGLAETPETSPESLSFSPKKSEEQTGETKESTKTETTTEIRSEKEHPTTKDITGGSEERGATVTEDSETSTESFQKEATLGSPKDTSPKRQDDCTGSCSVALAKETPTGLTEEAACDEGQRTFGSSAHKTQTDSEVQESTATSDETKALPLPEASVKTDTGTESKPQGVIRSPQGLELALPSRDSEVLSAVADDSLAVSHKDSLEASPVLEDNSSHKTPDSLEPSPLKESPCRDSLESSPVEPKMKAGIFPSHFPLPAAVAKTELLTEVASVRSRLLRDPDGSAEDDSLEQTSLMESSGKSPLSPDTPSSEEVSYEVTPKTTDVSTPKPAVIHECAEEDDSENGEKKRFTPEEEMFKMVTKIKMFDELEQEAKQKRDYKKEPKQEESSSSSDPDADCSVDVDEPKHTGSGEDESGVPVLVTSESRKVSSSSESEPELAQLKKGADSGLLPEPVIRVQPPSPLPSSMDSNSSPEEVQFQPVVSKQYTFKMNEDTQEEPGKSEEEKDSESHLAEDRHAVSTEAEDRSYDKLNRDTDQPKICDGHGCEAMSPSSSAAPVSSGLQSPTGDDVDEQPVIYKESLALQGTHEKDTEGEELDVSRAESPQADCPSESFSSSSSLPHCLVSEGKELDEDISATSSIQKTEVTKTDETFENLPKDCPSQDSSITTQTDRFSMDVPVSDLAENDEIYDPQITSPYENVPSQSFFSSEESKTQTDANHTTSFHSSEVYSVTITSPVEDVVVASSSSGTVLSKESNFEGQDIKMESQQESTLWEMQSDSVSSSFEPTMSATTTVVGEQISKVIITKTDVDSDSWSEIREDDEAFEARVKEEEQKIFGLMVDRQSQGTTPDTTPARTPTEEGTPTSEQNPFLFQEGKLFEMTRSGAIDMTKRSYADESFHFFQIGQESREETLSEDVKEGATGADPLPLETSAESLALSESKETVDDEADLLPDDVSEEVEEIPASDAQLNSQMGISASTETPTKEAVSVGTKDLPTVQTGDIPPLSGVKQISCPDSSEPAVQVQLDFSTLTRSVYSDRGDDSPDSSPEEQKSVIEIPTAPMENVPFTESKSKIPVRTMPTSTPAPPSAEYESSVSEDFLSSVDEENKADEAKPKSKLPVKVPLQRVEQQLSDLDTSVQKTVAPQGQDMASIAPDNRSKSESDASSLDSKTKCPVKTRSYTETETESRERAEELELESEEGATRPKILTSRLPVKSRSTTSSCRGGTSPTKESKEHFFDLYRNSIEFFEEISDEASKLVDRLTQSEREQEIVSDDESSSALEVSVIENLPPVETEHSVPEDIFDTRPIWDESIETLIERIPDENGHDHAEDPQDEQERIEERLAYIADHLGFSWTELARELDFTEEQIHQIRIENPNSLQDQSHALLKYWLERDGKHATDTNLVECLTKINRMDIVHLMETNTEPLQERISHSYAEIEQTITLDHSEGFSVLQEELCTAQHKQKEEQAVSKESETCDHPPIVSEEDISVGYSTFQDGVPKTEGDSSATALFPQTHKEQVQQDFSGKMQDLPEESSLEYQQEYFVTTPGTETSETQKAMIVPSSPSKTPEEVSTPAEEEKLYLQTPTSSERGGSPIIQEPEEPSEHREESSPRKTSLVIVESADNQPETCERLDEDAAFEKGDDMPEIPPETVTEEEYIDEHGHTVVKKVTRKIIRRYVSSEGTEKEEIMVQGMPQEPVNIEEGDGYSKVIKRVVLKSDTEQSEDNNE
UniProt P61204: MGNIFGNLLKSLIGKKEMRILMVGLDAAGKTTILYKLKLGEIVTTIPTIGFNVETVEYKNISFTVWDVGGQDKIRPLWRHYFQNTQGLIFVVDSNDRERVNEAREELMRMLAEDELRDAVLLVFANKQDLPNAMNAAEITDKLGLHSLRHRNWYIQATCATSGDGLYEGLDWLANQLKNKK
UniProt O94973, whole entry, looked up: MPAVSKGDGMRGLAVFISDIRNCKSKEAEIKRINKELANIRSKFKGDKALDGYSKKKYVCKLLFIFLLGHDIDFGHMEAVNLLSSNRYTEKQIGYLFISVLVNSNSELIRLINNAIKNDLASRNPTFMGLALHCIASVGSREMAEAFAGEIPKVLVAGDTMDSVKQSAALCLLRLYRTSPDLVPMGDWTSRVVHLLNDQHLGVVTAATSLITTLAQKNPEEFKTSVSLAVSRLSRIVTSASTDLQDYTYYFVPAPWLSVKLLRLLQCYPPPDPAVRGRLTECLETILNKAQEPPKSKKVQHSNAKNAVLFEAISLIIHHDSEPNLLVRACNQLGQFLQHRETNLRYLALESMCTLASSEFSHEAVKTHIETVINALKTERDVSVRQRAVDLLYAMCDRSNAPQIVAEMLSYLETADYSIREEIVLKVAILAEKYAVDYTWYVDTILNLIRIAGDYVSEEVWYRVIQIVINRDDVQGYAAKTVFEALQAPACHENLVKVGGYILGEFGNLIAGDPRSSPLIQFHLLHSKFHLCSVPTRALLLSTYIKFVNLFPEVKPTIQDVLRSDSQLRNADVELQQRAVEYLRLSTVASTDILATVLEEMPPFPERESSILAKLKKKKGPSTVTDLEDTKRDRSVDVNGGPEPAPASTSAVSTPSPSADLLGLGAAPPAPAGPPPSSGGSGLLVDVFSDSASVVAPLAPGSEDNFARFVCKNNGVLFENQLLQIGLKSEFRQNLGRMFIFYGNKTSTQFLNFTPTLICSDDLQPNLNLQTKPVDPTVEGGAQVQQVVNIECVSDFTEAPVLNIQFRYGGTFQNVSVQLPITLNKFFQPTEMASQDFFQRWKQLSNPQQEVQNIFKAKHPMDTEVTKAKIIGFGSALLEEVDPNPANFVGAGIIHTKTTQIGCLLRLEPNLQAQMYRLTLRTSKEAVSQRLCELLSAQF

compound: COc1cc2ncnc(Nc3ccc(F)c(Cl)c3)c2cc1OCCCN1CCOCC1 [gefitinib]; assay: log2 fold change, soluble protein after heating vs DMSO (PISA); higher = thermal stabilisation; K562 cells, 10 uM, 30 min; active = over 0.2 and 3.5 SD of the protein, either way, in both replicates (recomputed)
Outline: (§1)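 K562 cells at 2×10^6 cells/mL were treated with 10 μM compound for 30 min. Aliquots were heated for 3 min across 48°C-58°C, pooled, and extracted in PBS with 0.5% NP-40 at 4°C; soluble protein was the supernatant after 21,000xg for 90 min. Soluble protein was quantified by TMTpro 16plex LC-MS/MS with channel sums equalised, and reported as log2 fold change in thermal stability against DMSO controls, with values from duplicates.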

log2 fold change, inactive:
ARAP1 (UniProt Q96P48) 0.132
ARHGAP1 (UniProt Q07960) 0.005
AP3D1 isoform 5 (UniProt O14617) -0.02
ARGLU1 (UniProt Q9NWB6) 0.212
ANK3 (UniProt Q12955) 0.047
AP5M1 (UniProt Q9H0R1) -0.003
APOBEC3G (UniProt Q9HC16) -0.074
ANKRD54 (UniProt Q6NXT1) -0.086
AP1B1 (UniProt Q10567) 0.023
ANXA7 (UniProt P20073) -0.006
ANKRD17 (UniProt O75179) 0.076
ARHGAP12 (UniProt Q8IWW6) 0.096
ANXA4 (UniProt P09525) 0.055
ARHGAP6 (UniProt O43182) -0.146
ANXA11 (UniProt P50995) 0.041
AP2M1 (UniProt C9JTK4) 0.005
ANPEP (UniProt P15144) -0.026
APOH (UniProt P02749) -0.307
AP2S1 (UniProt P53680) 0.017
APRT (UniProt P07741) -0.011
APOC1 (UniProt P02654) 0.039
ARFGAP1 (UniProt Q8N6T3) -0.022
ARHGDIA (UniProt P52565) 0.018
APOBEC3C (UniProt Q9NRW3) -0.101
ANO10 (UniProt Q9NW15) 0.006
ANK2 (UniProt Q01484) -0.062
ARHGDIB (UniProt P52566) 0.033
AP4B1 (UniProt Q9Y6B7) 0.069
ARF3 (UniProt P61204) -0.002
AP2A1 (UniProt O95782) 0.025
AP2A2 isoform 2 (UniProt O94973) 0.027
ANTKMT (UniProt Q9BQD7) 0.078
ANAPC5 (UniProt Q9UJX4) -0.004

compound: COc1cccc2cc(-c3nc([C@H]4CC[C@H](C(=O)O)CC4)n4ncnc(N)c34)[nH]c12; assay: as above
Outline: as §1

log2 fold change, inactive:
ARAP1 (UniProt Q96P48) -0.042
ARHGAP1 (UniProt Q07960) -0.036
AP3D1 isoform 5 (UniProt O14617) -0.043
ARGLU1 (UniProt Q9NWB6) 0.031
ANK3 (UniProt Q12955) 0.03
AP5M1 (UniProt Q9H0R1) 0.4
APOBEC3G (UniProt Q9HC16) -0.053
ARHGEF12 (UniProt Q9NZN5) -0.068
AQR (UniProt O60306) 0
ANKRD54 (UniProt Q6NXT1) 0.011
AP1B1 (UniProt Q10567) 0.031
ANXA7 (UniProt P20073) -0.019
ANKRD17 (UniProt O75179) -0.134
ARHGAP12 (UniProt Q8IWW6) 0.078
ANXA4 (UniProt P09525) -0.024
ARHGAP6 (UniProt O43182) -0.115
ANXA11 (UniProt P50995) 0.004
AP2M1 (UniProt C9JTK4) 0.123
ANPEP (UniProt P15144) -0.057
APOM (UniProt O95445) 0.306
APOH (UniProt P02749) 0.529
AP2S1 (UniProt P53680) -0.061
APRT (UniProt P07741) 0.054
APOC1 (UniProt P02654) 0.045
ARFGAP1 (UniProt Q8N6T3) -0.015
ANGPTL3 (UniProt Q9Y5C1) 0.076
ARHGDIA (UniProt P52565) -0.022
APOBEC3C (UniProt Q9NRW3) -0.065
ANO10 (UniProt Q9NW15) -0.008
ANK2 (UniProt Q01484) 0.048
ARHGDIB (UniProt P52566) 0.023
ARF3 (UniProt P61204) 0.06
AP2A1 (UniProt O95782) 0.005
AP2A2 isoform 2 (UniProt O94973) 0
APOBEC3D (UniProt Q96AK3) -0.033
ANAPC5 (UniProt Q9UJX4) -0.024

compound: CS(=O)(=O)CCNCc1ccc(-c2ccc3ncnc(Nc4ccc(OCc5cccc(F)c5)c(Cl)c4)c3c2)o1 [lapatinib]; assay: as above
Outline: as §1

log2 fold change, inactive:
ARAP1 (UniProt Q96P48) 0.38
ARHGAP1 (UniProt Q07960) -0.035
AP3D1 isoform 5 (UniProt O14617) 0.021
ARGLU1 (UniProt Q9NWB6) 0.062
ANK3 (UniProt Q12955) 0.04
AP5M1 (UniProt Q9H0R1) 0.118
APOBEC3G (UniProt Q9HC16) 0.046
ARHGEF12 (UniProt Q9NZN5) 0.124
AQR (UniProt O60306) 0.007
ANKRD54 (UniProt Q6NXT1) 0.029
AP1B1 (UniProt Q10567) 0.091
ANXA7 (UniProt P20073) 0.019
ANKRD17 (UniProt O75179) -0.032
ARHGAP12 (UniProt Q8IWW6) 0.01
ANXA4 (UniProt P09525) -0.022
ANXA11 (UniProt P50995) -0.002
ANPEP (UniProt P15144) 0.086
APOM (UniProt O95445) -0.11
APOH (UniProt P02749) -0.197
AP2S1 (UniProt P53680) -0.022
APRT (UniProt P07741) -0.071
APOC1 (UniProt P02654) 0.013
ARFGAP1 (UniProt Q8N6T3) -0.038
ANGPTL3 (UniProt Q9Y5C1) -0.075
ARHGDIA (UniProt P52565) -0.014
APOBEC3C (UniProt Q9NRW3) 0.171
ANO10 (UniProt Q9NW15) -0.002
ANK2 (UniProt Q01484) -0.013
ARHGDIB (UniProt P52566) -0.107
ARF3 (UniProt P61204) -0.002
AP2A1 (UniProt O95782) 0.027
AP2A2 isoform 2 (UniProt O94973) 0.01
APOBEC3D (UniProt Q96AK3) 0.188
ANAPC5 (UniProt Q9UJX4) 0.056
